Experimental data as given in paper PMC9455862.

B1: p28 (protein, UniProt Q39604 1-253)
chain: MIPPLSSLVRYDNPVLVSTSKDKGKGAKGTPGKKGALPPVEQKPGLTQTEDILNSILPPREWTEDGQLWVQYVSSTPATRLDVINLQEKLDQQLQQRQARETGICPIREELYAQTFDELIRQVTINCAERGLLLLRVRDEMRMTIAAYQTLYESAVAFGIRKALQTEQGKSEMESRITQLEGDVKDLERQVQEWKFKCEAIEKRESERREVEAKKHKDEVAYLENYAKQLKQQLETFLVPAKKGAPGAPAAAT
B2: DNAAF2/PF13 (protein, UniProt B5BUZ8 1-675)
chain: MPGKEENDTLEKSLKELNLTSDEMTKFEKAFKDPEFIKLFEEYAKEVSDPKVKAETDAYLRQIEQQGRAEDVYGAGTQLIVPDPAGAVIKTKVVSSSASKKQQQEQEKQEKEQQQQAAGAGKPEGPGKQGALPVGQKVFINICTCDKLERYSLTDAQDPATGRLRPKLTIPLSLGPVRQGADKQGAPAAVYDFVVHPDSWTFAAGNAAGLATLADTALDHVEQVGRCRLVRAWKRLNCRYKGTEGAAEPPVQCIRTSAAAAAGAAGEGAGGRVRPRPDVPGVPDLPGAKTAPPAAAGAAATAAAAAGAAEGGAGSSSRSTFSFDKSRKAGGTEAAGAVAKQEATITDPARPGYRHPDGAVTPEWGLLHRGEADLGEAWGDAGKGLAAGGRVPKELVVRVTLPDVSSAAPVDLDVGARCLALTVPNRYRLSVQLPYGVDDAKGRAKFDKARKVLEVTLPVVPPPAPPPGAAAAARAGLALIQELGGSEEAAEVKAEVEVEVADVMGRDQEAAHAKSEAGAGAGVKSPHTAAAASSGAAPAPAAASEEEEEEDKEDGGPAAGSGGDPAAAAAAAGASSGRELTENERKWRELHARQQQEEQEQQEAAEAAAAAAAAAAEPSSRSQLTGTVAQGGAAAAAESVAAAKQQVQQQPVAAAAAPTAVLRPRLNRELAMELD
B3: HSP90C (protein, UniProt Q66T67 1-810)
chain: MMLRGLSSGMRQARAQSSASAASAARPLPLLARGNGVSSALLSGASPCAAVTAAASLRPLPAGRGPVLMRAAATEAASGSETFTYQAEVDRLMDMIVNSLYSNREVFLRELISNASDALDKARFLSLTDPSVLAGREELDIRISADKEKGTLVIEDSGIGMSREQLLSNLGTIARSGTRKFMEAMAAKGDTNLIGQFGVGFYSAFLVADRVMVQSKSPEEAKHWVWEAKAGSHQYSIREDEAKDLVRGTRITLYLKEDAAEMADTVKITQLIKQYSQFIAFPIKVYAPKKEPRKVVDEEATKKKQAAADAKAKEAGEEAAKPVEPVMKTEYDEVWDWRLENENKPIWTRSPKDVSETAYNDFFKTTFGEFLDPLAHVHFNVEGTIEFSSILYIPGMAPFEQQNMQQRSKSIKLYVKRVFISDEFDEDLMPRYLAFVKGVVDSSDLPLNVSREILQESRIVRVIRKQLVRRSIEMLEELAGKEGGEDYKTFWEAFGRNIKYGVIEDTENRERLSKLLRFSSSKAEDSLTSLDEYVGRMGANQKTIYYMAADSVAAARAAPFMEAMVAKGIEVLYLTEPIDEACVTNLGKYGPDKNGPQYELVDVSKEGVSLDEGEDEKKKAEEVAKDMAPVVDFLKKALGERVEKVTVSNRLLDSPCALVTSKFGWSANMERIMRSQALGDARAMEYMKGRKIMEINPNHDIIAGIKTLLKEKDEDRARDLSELLYETALITSGFQVDSPKDYASKVFTLMKIALGYDILSEAEEQAAAAAPQAAEAAAAPKAAEAAAVPKVEATPVDAEVVSDDPWKKSA
B4: DNAAF14/MOT48 (protein, UniProt D4AHU0 1-451)
chain: MLITDNMLGKQEPQAVGPMDGPEPSPEELLALVELLQQQGMNMDQVPADLKTMLHNVKRQKAPATKGPATPEAPTEEITPDPGFVIKTTETKTGDKIFINVCWHDRVAAPGGWSNGVMPDEVAAALEKLQSAGGDEGAAHMSPSEVEALRFPLACGAPRVDTDRKGSPCTAIDVVFNSDVVRAAASARKLKAMLIEVSLGWVGNKLGGKLDPRYKLPKMRYKGEVVASQRIRADDKRKKLVTELREVDEEPSFALRTKKAPAPPPITAQSPASAASSTVAAPATASSADQQSVAAVGPASNHDRSSGAAASPSAAPTYKVDYAGRPVQWVQVTVDFPASGPSSSAAAQQPGCTSVEVCGRNVYIRAGPGAPELHVPLQFAVSAEGATAAWQEQQQPSTGGGKGPGGPLGQHLVVRLPYMGLQDYLADARAQAPLAFGQLSFASKALLELEP
B5: DNAAF18/DAW1/ODA16/WDR69 (protein, UniProt Q3Y8L7 1-446)
chain: MAAKLRKFLLRYYPPGIILQYERDGVMKQKPIDLLDLTPDVDVEVLLSQIIRQEPLISENRRPALRQLIHRLIDKMLEQQHHSFTLFKVLRAHILPLTNCAFNKSGDRFITGSYDRTCKVWNTFTGEEVFTLEGHKNVVYAIAFNNPYGDKIVTGSFDKTCKLWDAYTGQLYYTLKGHQTEIVCLSFNPQSTIIATGSMDNTAKLWDVETGQERATLAGHRAEIVSLGFNTGGDLIVTGSFDHDSRLWDVRTGQCVHVLSGHRGEVSSTQFNYAGTLVVSGSIDCTSRLWDVRSGRCLSVKQGHTDEVLDVAFDAAGTKMVSASADGSARLYHTLTGVCQHTLVGHEGEISKVAFNPQGTRLITASSDKTCRLWDCDTGECLQVLEGHTDEIFSCAFNYEGDFIITGSKDNTCRIWKALTASSQPAGPGGAGGGLARPTTAFSYND
B6: IC1 (protein, UniProt Q39578 1-683)
chain: MPALSPAKKGTDKGKTGKKTGKQEQNAQDYIPPPPPMPGDEAFAMPIREIVKPDNQLWLSEADLNEEVAKMLTANNPAAPKNIVRFNMKDKVFKLEPMVEQTVVHYATDGWLLHKSSDEAKRQMDMEKMEQEASARFQADIDRASHEHKDHGDVEPPDDSRQLRNQFNFSERAAQTLNYPLRDRETFTEPPPTATVSGACTQWEIYDEYIKDLERQRIDEAMKSKGGKKAAAAARAAGAAHRQRNEHVPTLQSPTLMHSLGTLDRMVNQNMYEEVAMDFKYWDDASDAFRPGEGSLLPLWRFVSDKSKRRQVTSVCWNPLYDDMFAVGYGSYEFLKQASGLINIYSLKNPSHPEYTFHTESGVMCVHFHPEFANLLAVGCYDGSVLVYDVRLKKDEPIYQASVRTGKLNDPVWQIYWQPDDAQKSLQFVSISSDGAVNLWTLTKSELIPECLMKLRVVRAGETREEEDPNASGAAGGCCMDFCKMPGQESIYLVGTEEGAIHRCSKAYSSQYLSTYVSHHLAVYAVHWNNIHPSMFLSASCRLDHQAVGLCHDPKRAVMNFDLNDSIGDVSWAALQPTVFAAVTDDGRVHVFDLAQNKLLPLCSQKVVKKAKLTKLVFNPKHPIVLVGDDKGCVTSLKLSPNLRITSKPEKGQKFEDLEVAKLDGVVEIARKSDADLAKNAAH

What follows are binders tested against FBB18-YFP (Chlamydomonas reinhardtii) (assay: affinity purification with mass spectrometry; lysate of 1x10^9 fbb18-1 rescue cells expressing FBB18-YFP, anti-GFP rabbit mAb agarose beads, wild-type cells as control; SDS-PAGE gel slices analysed by mass spectrometry; one experiment).

Q: How did the binding turn out when B1 was run?
A: binds

Q: With B2 as the binder, how does the binding read?
A: binds

Q: For B3, which binding is on record?
A: binds

Q: For B4, which binding is on record?
A: no binding

Q: With B5 as the binder, how does the binding read?
A: no binding

Q: How did the binding turn out when B6 was run?
A: no binding

No constants are given. Whether binding was seen depends on the method and setting. Binding seen in cells or lysates may run through a third protein. Here binding means that the protein was enriched with, or labelled near, the bait; the list need not be complete. No binding means not detected with the bait.
